PubChem BioAssay (EPA / NIEHS)
“And” between values parts separate entries of the source, which are not always exact repeats. Equal entries are not always repeated. Inconclusive results, whose numbers are uncertain, are shown with a selection of clear calls. For some of these results: Where the call is inconclusive, the potency comes from a doubtful curve fit. The source made the active and inactive calls. The calls were made as follows: active = hit-call score of the fitted dose curve at least 0.9, where 1 is the maximum; inconclusive = response in the unintended direction; inactive = score below 0.9.

Sequences of proteins named here, by UniProt entry; tags and fusion partners are left off.
UniProt P04637, whole entry, looked up: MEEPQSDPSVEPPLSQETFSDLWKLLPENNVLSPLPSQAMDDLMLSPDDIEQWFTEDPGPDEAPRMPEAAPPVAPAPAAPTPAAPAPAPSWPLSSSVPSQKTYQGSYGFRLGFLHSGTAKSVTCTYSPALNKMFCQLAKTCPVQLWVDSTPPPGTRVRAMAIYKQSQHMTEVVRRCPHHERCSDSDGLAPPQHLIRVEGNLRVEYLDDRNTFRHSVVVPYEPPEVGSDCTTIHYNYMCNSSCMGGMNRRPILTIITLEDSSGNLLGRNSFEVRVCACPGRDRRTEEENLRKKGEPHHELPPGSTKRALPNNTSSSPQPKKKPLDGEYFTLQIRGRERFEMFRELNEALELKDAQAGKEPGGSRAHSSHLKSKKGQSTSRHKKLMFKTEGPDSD

Biological target: Cellular tumor antigen p53 (Homo sapiens) (UniProt P04637)
Test: TOX21_p53_BLA_p4_ratio: Tox21 HCT-116 p53 Agonism Beta-lactamase Assay, Ratio, Phase 4 (AID 2283601)
Procedure, shortened: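 HCT-116 p53 beta-lactamase reporter cells (4000/well) preincubated 5 h, then compound (217-fold dilution of DMSO stock) for 16 h at 37C. CCF4-AM substrate added 2 h at room temperature; 460/530 nm emission ratio fitted upward versus DMSO.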

| SMILES | AC50 | outcome |
| --- | --- | --- |
| C=CCOC(=O)CC(C)C | inconclusive: 46.6 µM |  |
| CC(C)c1ccc(C(=O)N=C(N)N)cc1S(C)(=O)=O |  | inactive |
| Cc1ccnc(N)c1 | inconclusive: 46.1 µM |  |
| O=C1O[C@H]([C@H](O)CO)C(O)=C1O | inconclusive: 46.1 µM |  |
| Nc1ccc(NCCO)c([N+](=O)[O-])c1 |  | inactive |
| O=C(O)C[C@H](O)C[C@H](O)/C=C/c1c(C2CC2)nc2ccccc2c1-c1ccc(F)cc1 |  | inactive |
| C#C[C@]1(O)CC[C@H]2[C@@H]3CCC4=Cc5oncc5C[C@]4(C)[C@H]3CC[C@@]21C | inconclusive: 76.4 µM |  |
| N=c1ccn2c(n1)O[C@H]1[C@H](O)[C@@H](CO)O[C@H]12 | active: 1.27 µM and active: 1.19 µM |  |
| CCC(=O)C=Cc1ccc(OC)cc1 |  | inactive |
| CCOC(=O)CC(C(C)=O)C(C)=O | inconclusive: 46.1 µM |  |
| C[N+](C)(C)CCCCCC[N+](C)(C)C |  | inactive |
| O=c1[nH]nnc2ccccc12 | inconclusive: 46.1 µM |  |
| CCCCC(CC)COC(=O)c1ccc(N(C)C)cc1 (centres undefined) |  | inactive |
| CCCC/C=C/C=C\C=O | inconclusive: 46.1 µM |  |
| CC(C)CC(=O)OCc1ccccc1 |  | inactive |
| CSc1nc(NC2CC2)nc(NC(C)(C)C)n1 | inconclusive: 46.1 µM |  |
| CC(C)c1nnc2ccc(-c3ocnc3-c3cc(F)ccc3F)cn12 | inconclusive: 46.1 µM |  |
| CC(C)(CO)COC(=O)C(C)(C)CO | inconclusive: 46.1 µM |  |

| SMILES | AC50 | outcome |
| --- | --- | --- |
| C=CCOC(=O)C(=C)C | inconclusive: 46.1 µM | inactive |
| Cc1ccc(Nc2ccc(O)c3c2C(=O)c2ccccc2C3=O)cc1 | inconclusive: 46.2 µM |  |
| CC(C)(O)Cc1ccccc1 | inconclusive: 46.1 µM |  |
| CC(CC(C)C)=NO | inconclusive: 46.1 µM |  |
| CC(=O)OCC=C(C)C |  | inactive |
| CC(C)(C)c1cc(CCC(=O)NN)cc(C(C)(C)C)c1O | inconclusive: 46.1 µM |  |
| Cc1cc(C)nc(NS(=O)(=O)c2ccc(N)cc2)n1 | inconclusive: 46.5 µM and inconclusive: 23 µM |  |
| CCCCCCCCCCOC(=O)c1ccccc1C(=O)OCCCCCCCC | inconclusive: 30.4 µM |  |
| OC[C@H]1O[C@@H](Oc2ccc(O)cc2)[C@H](O)[C@@H](O)[C@@H]1O |  | inactive |
| CCCOCCO | inconclusive: 43.8 µM and inconclusive: 46.5 µM |  |
| Cc1ccc(C=O)s1 |  | inactive |
| c1cc(-c2ccncc2)ccn1 | inconclusive: 46.1 µM |  |
| CC/C=C\CCOC(=O)c1ccccc1 |  | inactive |
| CC(=O)c1ccccc1O | inconclusive: 78.8 µM |  |
| CC1C(C)(C)C2=C(C(=O)CCC2)C1(C)C (centres undefined) | inconclusive: 46.1 µM |  |
| CCc1nn(C2CCCCC2)c2cc(C3(C#N)CCC(C(=O)O)CC3)ccc12 (centres undefined) | active: 75.2 µM |  |

Tested on: not listed separately
Test: Tanguay_ZF_120hpf_YSE_legacy: (Legacy) Oregon State University Tanguay Lab 120 Hour Post-fertilization zebrafish Assay for Yolk Sac Edema (AID 2283634);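 as to AC50: actives raise the incidence of yolk sac edema above the DMSO baseline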
Procedure, shortened: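 Binary brightfield scoring of yolk sac edema at 120 hpf; DMSO baseline, gain-of-signal fitting. Dechorionated 5D larvae, one per well, static exposure 6–120 hpf, 28C, 0.64% DMSO. Dead embryos not scored.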

| SMILES | outcome | AC50 |
| --- | --- | --- |
| CC(C)c1ccc(C(=O)N=C(N)N)cc1S(C)(=O)=O | inactive |  |
| Fc1ccccc1[C@@H](F)COC1CCC(Nc2ncnc3[nH]ncc23)CC1 (some centres undefined) |  | active: 23.9 µM |
| Cc1cccc(C)c1O | inactive |  |

Tested on: not listed separately
Test: Tanguay_ZF_120hpf_AXIS_legacy: (Legacy) Oregon State University Tanguay Lab 120 Hour Post-fertilization zebrafish Assay for Body Axis Malformation (AID 2283635);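 as to AC50: potency for an increased fraction of larvae scored with body axis malformation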
Procedure, shortened: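 Embryos: 5D wild-type, pronase-dechorionated 4 hpf; static exposure 6–120 hpf, 28C, sealed, dark, 1 embryo/well, 0.64% DMSO. 120 hpf axis malformation scored present/absent; dead embryos excluded. Analysed as gain of signal vs DMSO.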

| SMILES | AC50 | outcome |
| --- | --- | --- |
| CC(C)c1nnc2ccc(-c3ocnc3-c3cc(F)ccc3F)cn12 | inconclusive: 182 µM |  |
| c1cc(-c2ccncc2)ccn1 | inconclusive: 3.12 µM |  |

Tested on: not listed separately
Test: Tanguay_ZF_120hpf_JAW_legacy: (Legacy) Oregon State University Tanguay Lab 120 Hour Post-fertilization zebrafish Assay for Jaw Malformation (AID 2283638);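 as to AC50: active means more embryos with jaw malformation than DMSO controls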
Procedure, shortened: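 Binary jaw-malformation calls at 120 hpf by brightfield imaging; DMSO (0.64% v/v) = baseline. Embryos: 5D wild-type, pronase-dechorionated, one per well from 6 hpf, static exposure, 28C, sealed, dark.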

| SMILES | AC50 | outcome |
| --- | --- | --- |
| Fc1ccccc1[C@@H](F)COC1CCC(Nc2ncnc3[nH]ncc23)CC1 (some centres undefined) | active: 38 µM |  |
| Cc1ccc2ncccc2c1 |  | inactive |
| CCc1nn(C2CCCCC2)c2cc(C3(C#N)CCC(C(=O)O)CC3)ccc12 (centres undefined) | active: 0.332 µM |  |

Tested on: not listed separately
Test: Tanguay_ZF_120hpf_OTIC_legacy: (Legacy) Oregon State University Tanguay Lab 120 Hour Post-fertilization zebrafish Assay for Otic Vesicle Malformation (AID 2283639)
Procedure, shortened: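 Tropical 5D wild-type zebrafish embryos were exposed statically in sealed, foil-covered plates at 28C until 120 hpf, with 0.64% (vol/vol) DMSO final. Otic vesicle malformation was scored present/absent by brightfield microscopy, with DMSO as baseline.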

| SMILES | AC50 |
| --- | --- |
| O=C1O[C@H]([C@H](O)CO)C(O)=C1O | inconclusive: 53.2 µM |
| Cc1cccc(C)c1O | inconclusive: 94.2 µM |
| CCc1nn(C2CCCCC2)c2cc(C3(C#N)CCC(C(=O)O)CC3)ccc12 (centres undefined) | active: 3.66 µM |
